These are yes or no findings as the source states them, for the method shown. In cells and extracts the contact can be indirect. Binding calls can cover weak binding; strength is not graded here. Tags and fused reporters may be left off the sequences shown.
T1: GST-XopA (X. campestris pv. vesicatoria) (UniProt B0RX62)
T1 sequence: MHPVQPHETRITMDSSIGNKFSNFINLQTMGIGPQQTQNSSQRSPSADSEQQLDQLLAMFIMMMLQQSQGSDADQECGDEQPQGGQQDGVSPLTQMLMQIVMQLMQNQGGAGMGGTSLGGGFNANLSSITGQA

T2: GST-XopJ (X. campestris pv. vesicatoria)
T2 sequence: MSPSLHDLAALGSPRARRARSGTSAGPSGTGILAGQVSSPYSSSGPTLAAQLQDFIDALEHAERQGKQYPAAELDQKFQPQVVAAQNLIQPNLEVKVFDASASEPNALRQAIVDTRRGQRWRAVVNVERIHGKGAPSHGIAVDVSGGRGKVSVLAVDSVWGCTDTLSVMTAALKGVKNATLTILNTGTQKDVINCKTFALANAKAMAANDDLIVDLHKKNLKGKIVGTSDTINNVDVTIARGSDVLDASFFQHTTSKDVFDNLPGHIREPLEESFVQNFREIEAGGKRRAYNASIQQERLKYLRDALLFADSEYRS


How the values were obtained:
Assay in all cases: pull-down; GST or GST fusion immobilized on glutathione sepharose from E. coli BL21(DE3) lysate, washed twice with PBS; incubated with 600 µl E. coli cell lysate containing the c-Myc-tagged partner for 1 to 2 h at 4°C; washed four times with PBS; eluted with 10 mM reduced glutathione; immunoblot with anti-c-Myc and anti-GST; only the target purified
[1] = biological target: T1, GST-XopA (X. campestris pv. vesicatoria)
[2] = biological target: T2, GST-XopJ (X. campestris pv. vesicatoria)
[3] = biological target: GST-HrcQ (X. campestris pv. vesicatoria)

Molecule	binding [1]	binding [2]	binding [3]
HrcQ-c-Myc (X. campestris pv. vesicatoria)	binds weakly	binds	–
XopJ-c-Myc (protein, UniProt A0AB38E6N7 1-316) MSPSLHDLAALGSPRARRARSGTSAGPSGTGILAGQVSSPYSSSGPTLAAQLQDFIDALEHAERQGKQYPAAELDQKFQPQVVAAQNLIQPNLEVKVFDASASEPNALRQAIVDTRRGQRWRAVVNVERIHGKGAPSHGIAVDVSGGRGKVSVLAVDSVWGCTDTLSVMTAALKGVKNATLTILNTGTQKDVINCKTFALANAKAMAANDDLIVDLHKKNLKGKIVGTSDTINNVDVTIARGSDVLDASFFQHTTSKDVFDNLPGHIREPLEESFVQNFREIEAGGKRRAYNASIQQERLKYLRDALLFADSEYRS	–	–	binds
